Experimental data: PubChem BioAssay AID1347423 (Functional Genomics Laboratory (NCATS/FGL), 2020)
Hit rate of the full screen: of about 52,000 sequences, about 210 (0.4%) were called active.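 The calls were made as follows: active = gene whose silencing raises cell survival under the drug, median off-target-corrected z-score across its silencing RNAs 2 or more; inactive = the rest.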 This is one part of the list.

assay: Resistance to Poly (ADP-Ribose) Polymerase inhibitor: Gene Identification via Genome-wide siRNA Screen; conditions: mouse BRCA2 R2336H ES cells, olaparib, CellTiter-Glo viability; active compounds read high
In short: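 Mouse BRCA2 R2336H ES cells were reverse-transfected with siRNA (20 nM final), treated at 48 h with 500 nM olaparib, and read by CellTiter-Glo after 72 h. Scores: MAD-based z per siRNA, median per gene, seed off-target correction.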

Question: Which z-score does the source give for GGGCAUGCGGAUCUUCUUATT against Sbp here?
Answer: inactive: 0.235

Question: For GGAACACAGAGAAUGGCUCTT against Rnf126, which z-score is on record?
Answer: inactive: 0.307

Question: Which z-score does the source give for GGGAUCCCGCAAAAUCAGATT against Osm here?
Answer: inactive: 0.325

Question: Which z-score does the source give for “GGGACUCGUGCAACAUUAUTT against 1700001D09Rik” here?
Answer: inactive: -1.48

Question: For “GGAUGAAAUGAACCUAGAGTT against G431001E03Rik”, which z-score is on record?
Answer: inactive: -0.722

Question: With “GGAAAGUACCCUAGGAGUUTT against 4921509C19Rik” as the sequence, how does the z-score read?
Answer: inactive: -2.35

Question: With GGAUUGCUUCACCACAUGUTT against Fes as the sequence, how does the z-score read?
Answer: inactive: 0.279

Question: Which z-score does the source give for GGGCAUACAUGAUCCUCCUTT against Gpr39 here?
Answer: inactive: -0.839

Question: With “GGAAAUGACCAAAGAGGCUTT against G630009D10Rik” as the sequence, how does the z-score read?
Answer: inactive: -0.339

Question: Which z-score does the source give for “GCUCUCUACGAUGAGGUCATT against 2500002K03Rik” here?
Answer: inactive: -1.45

Question: With GGCAUAGGAAACACCAAGATT against Xdh as the sequence, how does the z-score read?
Answer: inactive: -0.732

Question: For GGAGUGUUUCCUGUCUCCUTT against Rad54l, which z-score is on record?
Answer: inactive: 0.3

Question: With CGAACUUCUUAAUAAACAGTT against Slc7a2 as the sequence, how does the z-score read?
Answer: inactive: 0.256

Question: Which z-score does the source give for GGAAAACUCUCUGCAUUAUTT against Stx7 here?
Answer: inactive: 0.166

Question: Which z-score does the source give for GGCCCUAGCACUUUUUGUCTT against Ush2a here?
Answer: inactive: 0.237

Question: With CCUUAGCUUACCUAGUGGUTT against Tssc4 as the sequence, how does the z-score read?
Answer: inactive: 1.3

Question: Which z-score does the source give for “GGUCGGUUCUCUUCACUGATT against 1700025G04Rik” here?
Answer: inactive: 0.64

Question: With GGCAUGAGAACUAGUCUGCTT against Duox2 as the sequence, how does the z-score read?
Answer: inactive: -0.792

Question: Which z-score does the source give for “GGAGUUUUUACAGUGCUUUTT against B830045N13Rik” here?
Answer: inactive: 1.89

Question: For CCACAACCCUUGAGGAUGUTT against Samd11, which z-score is on record?
Answer: inactive: 1.81

Question: With “GGUUUGAGAGUGGUAAUCUTT against 6530406M24Rik” as the sequence, how does the z-score read?
Answer: inactive: -1.21

Question: Which z-score does the source give for GCGUGGUGAACAACUAUGCTT against AB041549 here?
Answer: inactive: 0.247

Question: Which z-score does the source give for GGUUAUUUGGUCCUCGUAGTT against Ccs here?
Answer: inactive: -1.79

Question: Which z-score does the source give for GGUAUAAACUAUUUGUACCTT against Gnb4 here?
Answer: inactive: -0.379

Question: For “GGUAUAGAUGACCAGAAGATT against 0610040D20Rik”, which z-score is on record?
Answer: inactive: -2.5

Question: For CCUUCCUACAACAAGUGUGTT against Galnt1, which z-score is on record?
Answer: inactive: -0.12

Question: With GCCACUAUUACUCUGAUACTT against Birc1c as the sequence, how does the z-score read?
Answer: inactive: 0.655

Question: Which z-score does the source give for GGACAUUCAACUGUACCACTT against Sepm here?
Answer: inactive: 0.439

Question: For GGAAGCAGAUGCAGCUGUUTT against Cml5, which z-score is on record?
Answer: inactive: -0.755

Question: With “CGCAGAAAGUUGUUAACCCTT against 1110030H18Rik” as the sequence, how does the z-score read?
Answer: inactive: -0.0265

Question: For GGAUGGUUGUGAGGAUUACTT against Paip1, which z-score is on record?
Answer: inactive: 1.85

Question: With GGAUGCUAGACAAGAAUCCTT against Camkk1 as the sequence, how does the z-score read?
Answer: inactive: 0.115

Question: With GGUGCAAGUUUUUCAGUCUTT against Gats as the sequence, how does the z-score read?
Answer: inactive: -1.91

Question: With GGCAAAAUAACUGACUUCATT against Rps4x as the sequence, how does the z-score read?
Answer: inactive: -2.97

Question: With GCAACUCUUAUUUGGAUGCTT against Dbpht1 as the sequence, how does the z-score read?
Answer: inactive: -0.34

Question: With GCCAGUAACCAGAAAAUUGTT against Sycp3 as the sequence, how does the z-score read?
Answer: inactive: -0.187

Question: With CCAAGAUUAACCAUAACACTT against Mrpl50 as the sequence, how does the z-score read?
Answer: inactive: -0.0482

Question: With CCAAUCUGCACCCUAUGUCTT against Cs as the sequence, how does the z-score read?
Answer: inactive: -0.558

Question: Which z-score does the source give for GGCUAUAAAAAGAAGUACCTT against Pdgfrb here?
Answer: inactive: -0.494

Question: With GGACAAAGAGGAAUGGAUATT against Tank as the sequence, how does the z-score read?
Answer: inactive: -0.113

Question: Which z-score does the source give for “GCCCAUUAUUGCUGAGACUTT against 1700063I17Rik” here?
Answer: inactive: -0.413

Question: With “GGCAUUUAGCCAAAAGUUCTT against 1700025J14Rik” as the sequence, how does the z-score read?
Answer: inactive: -0.0771

Question: Which z-score does the source give for “GGAGAUAUGGCCAUCACUCTT against 4930584N22Rik” here?
Answer: inactive: 0.199

Question: For “GGAAGUGCAAGGUUUACAATT against 9930104E21Rik”, which z-score is on record?
Answer: inactive: -1.19

Question: Which z-score does the source give for GCUUACCAAAGGCUAUUUGTT against Anxa13 here?
Answer: inactive: 0.274

Question: For CCGCUCACAACUUCUACAGTT against Lmo6, which z-score is on record?
Answer: inactive: -1.14

Question: Which z-score does the source give for “GGAGAGGCUUUUCAUUGAUTT against 4930457P18Rik” here?
Answer: inactive: 0.0958

Question: With GGUCUUAACUGUGAACAACTT against Dner as the sequence, how does the z-score read?
Answer: inactive: -0.16

Question: With GGGUCUCAGCAGUGCAAACTT against Txnip as the sequence, how does the z-score read?
Answer: inactive: 0.0441

Question: Which z-score does the source give for GGUCAAACAGGAAGACAGATT against Ubc here?
Answer: inactive: -1.46

Question: For GCCUUUUGAUGCUUCCUCUTT against BC017158, which z-score is on record?
Answer: inactive: -2.36

Question: Which z-score does the source give for “GGACAAAAGCAAAGAAAAGTT against 1300003K24Rik” here?
Answer: inactive: 0.583

Question: Which z-score does the source give for GGAGAAACUAUGAUCUUUATT against Mmp13 here?
Answer: inactive: 0.911

Question: With GGACAAGAAAAAAAACCUGTT against Mrvi1 as the sequence, how does the z-score read?
Answer: inactive: 0.235

Question: Which z-score does the source give for GGCAACAUCAAAGAAAGGATT against Rad51l1 here?
Answer: inactive: -0.89

Question: For “GGGAUAAAAACCAUGGUUUTT against E330017N17”, which z-score is on record?
Answer: inactive: 0.00847

Question: Which z-score does the source give for GGAAAAACAUUCAAGACUCTT against Solt here?
Answer: inactive: -0.194

Question: With GGACGUGGUGAAGUUUUAUTT against Folr2 as the sequence, how does the z-score read?
Answer: inactive: 0.139

Question: Which z-score does the source give for GGAAAAAAAGGACAUUUCATT against Osmr here?
Answer: inactive: -1.41

Question: Which z-score does the source give for GGGUGGUGGCAUUAAACUUTT against Stk36 here?
Answer: inactive: -2.19

Question: With CCAGCUAGUGAUGUCAAAATT against Bri3bp as the sequence, how does the z-score read?
Answer: inactive: 2.11

Question: For GGUUAUUGGCACUUUUAGATT against Ect2, which z-score is on record?
Answer: inactive: 0.319

Question: Which z-score does the source give for GGGUGCAUAUGUUUGAAGCTT against Copb2 here?
Answer: inactive: 0.319

Question: For UGAGGAGAGUUUCCGAGUGTT against H2-Q6, which z-score is on record?
Answer: inactive: -1.74

Question: For GGUCGUGUACAAGUACAUATT against Mrps24, which z-score is on record?
Answer: inactive: 1.69

Question: For GGAAGAGUGACUUGUGCAATT against Slc28a2, which z-score is on record?
Answer: inactive: -0.162
